Binding data for 1 substance are collected here from article PMC7289907.

Amino acid sequences for entries named in this document (tags omitted).
UniProt P52926: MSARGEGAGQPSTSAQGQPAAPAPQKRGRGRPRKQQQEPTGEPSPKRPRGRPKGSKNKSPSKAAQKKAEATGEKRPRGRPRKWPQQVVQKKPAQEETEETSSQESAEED

These are yes or no findings as the source states them, for the method shown. In cells and extracts the contact can be indirect. Here binding means that the protein was enriched with, or labelled near, the bait; the list need not be complete.

In this assay the target is T1, T7-PJA1 (Praja ring finger E3 ubiquitin ligase 1) (human) (UniProt Q8NG27).
T1 sequence: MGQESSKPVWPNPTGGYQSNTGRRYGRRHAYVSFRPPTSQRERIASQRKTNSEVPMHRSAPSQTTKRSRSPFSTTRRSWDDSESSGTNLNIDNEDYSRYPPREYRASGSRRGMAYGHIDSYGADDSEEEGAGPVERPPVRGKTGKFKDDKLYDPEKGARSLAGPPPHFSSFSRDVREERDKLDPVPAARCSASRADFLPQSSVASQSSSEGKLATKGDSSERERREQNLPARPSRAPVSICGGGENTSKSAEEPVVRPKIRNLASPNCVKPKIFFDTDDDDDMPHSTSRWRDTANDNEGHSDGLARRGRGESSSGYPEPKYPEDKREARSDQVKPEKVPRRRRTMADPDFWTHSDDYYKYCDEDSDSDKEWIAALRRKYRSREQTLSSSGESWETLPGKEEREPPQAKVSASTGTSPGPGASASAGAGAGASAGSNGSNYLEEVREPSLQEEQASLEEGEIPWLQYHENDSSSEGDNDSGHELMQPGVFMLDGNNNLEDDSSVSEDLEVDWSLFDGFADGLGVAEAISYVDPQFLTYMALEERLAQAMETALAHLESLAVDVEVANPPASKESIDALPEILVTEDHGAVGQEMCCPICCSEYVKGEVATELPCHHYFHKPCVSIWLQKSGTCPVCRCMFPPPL
Description: affinity purification with mass spectrometry; HepG2 cells transfected with T7-PJA1, with or without TGF-β1 (200 pM, 3 h); lysate in NP-40 buffer (50 mM Tris-HCl pH 7.5, 0.15 M NaCl, 1% NP-40, 1 mM EDTA), 1 mg protein precipitated with T7 antibody-beads; SDS-PAGE, silver stain; bands seen only in the TGF-β1 lane cut out for mass spectrometry.

For the substance “High mobility group AT-hook 2 (HMGA2) (from UniProt P52926 1-109)”, the binding result is “binds”.
